# Measurements from the supplement of paper PMC8728848.
# The other results are listed elsewhere or left out.
# Assays:
# Experiment in all cases: glycan array binding signal (z-score within array); higher = stronger binding
# Details in all cases: glycan notation: IUPAC condensed, linker removed
# GlcNAc(b1-3)Gal(b1-4)Glc = biological target: GlcNAc(b1-3)Gal(b1-4)Glc
# Outline: (§1)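 From the Consortium for Functional Glycomics database, 3228 arrays were curated, keeping only those whose protein sequence was available. Binding is given as a within-array Z-score averaged across arrays sharing a protein sequence and across linkers. Negative Z-scores can be read as non-binding.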
# [1] = biological target: GlcNAc(b1-3)Gal(b1-4)GlcNAc
# Outline: as §1
# [2] = biological target: GlcNAc(b1-3)Gal(b1-4)GlcNAc(b1-2)Man(a1-3)[GlcNAc(b1-3)Gal(b1-4)GlcNAc(b1-2)Man(a1-6)]Man(b1-4)GlcNAc(b1-4)GlcNAc
# Outline: as §1
# [3] = biological target: GlcNAc(b1-3)Gal(b1-4)GlcNAc(b1-2)Man(a1-3)[GlcNAc(b1-3)Gal(b1-4)GlcNAc(b1-2)Man(a1-6)]Man(b1-4)GlcNAc(b1-4)[Fuc(a1-6)]GlcNAc
# Outline: as §1
# [4] = biological target: GlcNAc(b1-3)Gal(b1-4)GlcNAc(b1-2)[GlcNAc(b1-3)Gal(b1-4)GlcNAc(b1-6)]Man(a1-6)[GlcNAc(b1-3)Gal(b1-4)GlcNAc(b1-2)Man(a1-3)]Man(b1-4)GlcNAc(b1-4)GlcNAc
# Outline: as §1
# [5] = biological target: GlcNAc(b1-3)Gal(b1-4)GlcNAc(b1-3)Gal(b1-4)GlcNAc
# Outline: as §1
# [6] = biological target: GlcNAc(b1-3)Gal(b1-4)GlcNAc(b1-3)Gal(b1-4)GlcNAc(b1-2)Man(a1-3)[GlcNAc(b1-3)Gal(b1-4)GlcNAc(b1-3)Gal(b1-4)GlcNAc(b1-2)Man(a1-6)]Man(b1-4)GlcNAc(b1-4)GlcNAc
# Outline: as §1
# [7] = biological target: GlcNAc(b1-3)Gal(b1-4)GlcNAc(b1-3)Gal(b1-4)GlcNAc(b1-2)Man(a1-3)[GlcNAc(b1-3)Gal(b1-4)GlcNAc(b1-3)Gal(b1-4)GlcNAc(b1-2)Man(a1-6)]Man(b1-4)GlcNAc(b1-4)[Fuc(a1-6)]GlcNAc
# Outline: as §1
# [8] = biological target: GlcNAc(b1-3)Gal(b1-4)GlcNAc(b1-3)Gal(b1-4)GlcNAc(b1-2)[GlcNAc(b1-3)Gal(b1-4)GlcNAc(b1-3)Gal(b1-4)GlcNAc(b1-6)]Man(a1-6)[GlcNAc(b1-3)Gal(b1-4)GlcNAc(b1-3)Gal(b1-4)GlcNAc(b1-2)Man(a1-3)]Man(b1-4)GlcNAc(b1-4)[Fuc(a1-6)]GlcNAc
# Outline: as §1
# [9] = biological target: GlcNAc(b1-3)Gal(b1-4)GlcNAc(b1-3)Gal(b1-4)GlcNAc(b1-3)Gal(b1-4)GlcNAc(b1-2)Man(a1-3)[GlcNAc(b1-3)Gal(b1-4)GlcNAc(b1-3)Gal(b1-4)GlcNAc(b1-3)Gal(b1-4)GlcNAc(b1-2)Man(a1-6)]Man(b1-4)GlcNAc(b1-4)GlcNAc
# Outline: as §1
# [10] = biological target: GlcNAc(b1-3)Gal(b1-4)GlcNAc(b1-3)Gal(b1-4)GlcNAc(b1-3)Gal(b1-4)GlcNAc(b1-2)Man(a1-3)[GlcNAc(b1-3)Gal(b1-4)GlcNAc(b1-3)Gal(b1-4)GlcNAc(b1-3)Gal(b1-4)GlcNAc(b1-2)Man(a1-6)]Man(b1-4)GlcNAc(b1-4)[Fuc(a1-6)]GlcNAc
# Outline: as §1
# [11] = biological target: GlcNAc(b1-3)Gal(b1-4)GlcNAc(b1-3)Gal(b1-4)GlcNAc(b1-3)Gal(b1-4)GlcNAc(b1-2)[GlcNAc(b1-3)Gal(b1-4)GlcNAc(b1-3)Gal(b1-4)GlcNAc(b1-3)Gal(b1-4)GlcNAc(b1-6)]Man(a1-6)[GlcNAc(b1-3)Gal(b1-4)GlcNAc(b1-3)Gal(b1-4)GlcNAc(b1-3)Gal(b1-4)GlcNAc(b1-2)Man(a1-3)]Man(b1-4)GlcNAc(b1-4)[Fuc(a1-6)]GlcNAc
# Outline: as §1
# [12] = biological target: GlcNAc(b1-3)Gal(b1-4)GlcNAc(b1-3)Gal(b1-4)GlcNAc(b1-3)Gal(b1-4)GlcNAc(b1-3)Gal(b1-4)GlcNAc(b1-2)Man(a1-3)[GlcNAc(b1-3)Gal(b1-4)GlcNAc(b1-3)Gal(b1-4)GlcNAc(b1-3)Gal(b1-4)GlcNAc(b1-3)Gal(b1-4)GlcNAc(b1-2)Man(a1-6)]Man(b1-4)GlcNAc(b1-4)GlcNAc
# Outline: as §1
# [13] = biological target: GlcNAc(b1-3)Gal(b1-4)GlcNAc(b1-3)Gal(b1-4)GlcNAc(b1-3)Gal(b1-4)GlcNAc(b1-3)Gal(b1-4)GlcNAc(b1-2)Man(a1-3)[GlcNAc(b1-3)Gal(b1-4)GlcNAc(b1-3)Gal(b1-4)GlcNAc(b1-3)Gal(b1-4)GlcNAc(b1-3)Gal(b1-4)GlcNAc(b1-2)Man(a1-6)]Man(b1-4)GlcNAc(b1-4)[Fuc(a1-6)]GlcNAc
# Outline: as §1
# [14] = biological target: GlcNAc(b1-3)Gal(b1-4)GlcNAc(b1-3)Gal(b1-4)GlcNAc(b1-3)Gal(b1-4)GlcNAc(b1-3)Gal(b1-4)GlcNAc(b1-2)[GlcNAc(b1-3)Gal(b1-4)GlcNAc(b1-3)Gal(b1-4)GlcNAc(b1-3)Gal(b1-4)GlcNAc(b1-3)Gal(b1-4)GlcNAc(b1-6)]Man(a1-6)[GlcNAc(b1-3)Gal(b1-4)GlcNAc(b1-3)Gal(b1-4)GlcNAc(b1-3)Gal(b1-4)GlcNAc(b1-3)Gal(b1-4)GlcNAc(b1-2)Man(a1-3)]Man(b1-4)GlcNAc(b1-4)[Fuc(a1-6)]GlcNAc
# Outline: as §1
# [15] = biological target: GlcNAc(b1-3)Gal(b1-4)GlcNAc(b1-3)Gal(b1-4)GlcNAc(b1-3)GalNAc
# Outline: as §1
# [16] = biological target: GlcNAc(b1-3)Gal(b1-4)GlcNAc(b1-3)GalNAc
# Outline: as §1
# [17] = biological target: GlcNAc(b1-3)Gal(b1-4)GlcNAc(b1-3)[GlcNAc(b1-3)Gal(b1-4)GlcNAc(b1-3)]GalNAc
# Outline: as §1
# [18] = biological target: GlcNAc(b1-3)Gal(b1-4)GlcNAc(b1-6)[Gal(b1-3)]GalNAc
# Outline: as §1
# [19] = biological target: GlcNAc(b1-3)Gal(b1-4)GlcNAc(b1-6)[GlcNAc(b1-3)Gal(b1-3)]GalNAc
# Outline: as §1
# [20] = biological target: GlcNAc(b1-3)Gal(b1-4)GlcNAc(b1-6)[GlcNAc(b1-3)]Gal(b1-4)GlcNAc
# Outline: as §1
# GlcNAc(b1-3)GalNAc = biological target: GlcNAc(b1-3)GalNAc
# Outline: as §1
# GlcNAc(b1-3)Man = biological target: GlcNAc(b1-3)Man
# Outline: as §1
# [21] = biological target: GlcNAc(b1-3)[GlcNAc(b1-4)][GlcNAc(b1-6)]GlcNAc
# Outline: as §1
# [22] = biological target: GlcNAc(b1-3)[GlcNAc(b1-6)]Gal(b1-4)GlcNAc
# Outline: as §1
# [23] = biological target: GlcNAc(b1-3)[GlcNAc(b1-6)]GalNAc
# Outline: as §1
# [24] = biological target: GlcNAc(b1-4)Gal(b1-4)GlcNAc
# Outline: as §1
# GlcNAc(b1-4)GlcNAc = biological target: GlcNAc(b1-4)GlcNAc
# Outline: as §1
# [25] = biological target: GlcNAc(b1-4)GlcNAc(b1-4)GlcNAc
# Outline: as §1
# [26] = biological target: GlcNAc(b1-4)GlcNAc(b1-4)GlcNAc(b1-4)GlcNAc(b1-4)GlcNAc
# Outline: as §1
# [27] = biological target: GlcNAc(b1-4)GlcNAc(b1-4)GlcNAc(b1-4)GlcNAc(b1-4)GlcNAc(b1-4)GlcNAc
# Outline: as §1
# [28] = biological target: GlcNAc(b1-4)[GlcNAc(b1-6)]GalNAc
# Outline: as §1
# [29] = biological target: GlcNAc(b1-6)Gal(b1-4)GlcNAc
# Outline: as §1
# GlcNAc(b1-6)GalNAc = biological target: GlcNAc(b1-6)GalNAc
# Outline: as §1
# [30] = biological target: GlcNAc6S(b1-3)Gal(b1-4)GlcNAc
# Outline: as §1
# Kdn(a2-3)Gal(b1-3)GalNAc = biological target: Kdn(a2-3)Gal(b1-3)GalNAc
# Outline: as §1
# Kdn(a2-3)Gal(b1-3)GlcNAc = biological target: Kdn(a2-3)Gal(b1-3)GlcNAc
# Outline: as §1
# Kdn(a2-3)Gal(b1-4)Glc = biological target: Kdn(a2-3)Gal(b1-4)Glc
# Outline: as §1
# Kdn(a2-3)Gal(b1-4)GlcNAc = biological target: Kdn(a2-3)Gal(b1-4)GlcNAc
# Outline: as §1
# [31] = biological target: Kdn(a2-3)Gal(b1-4)[Fuc(a1-3)]GlcNAc
# Outline: as §1
# Kdn(a2-6)Gal(b1-4)GlcNAc = biological target: Kdn(a2-6)Gal(b1-4)GlcNAc
# Outline: as §1
# [32] = biological target: Man(a1-2)Man(a1-2)Man(a1-3)Man
# Outline: as §1
# [33] = biological target: Man(a1-2)Man(a1-2)Man(a1-6)[Man(a1-3)]Man
# Outline: as §1
# Man(a1-2)Man(a1-3)Man = biological target: Man(a1-2)Man(a1-3)Man
# Outline: as §1
# [34] = biological target: Man(a1-2)Man(a1-3)[Man(a1-2)Man(a1-6)]Man
# Outline: as §1
binder,measurement,setting,value
PhypaEULS3 (Physcomitrella patens) (protein) MLPVRLHCKADPNFNLAAVPGQGPVMVPFSPNDDFQVWYKDVTMSTRVKDETGSSAFSLINKATGQALRHAPEDLAQCLLADYDSNALDQTVLWTMSEDMGQGYCCIRLASQITRNLDVFRGDKKSGGVKEGSPVITFAWKKQDNQIWKMITAILEQKLISEEDLNSAVDHHHHHH,glycan array binding signal (z-score),GlcNAc(b1-3)Gal(b1-4)Glc,-0.901
same,glycan array binding signal (z-score),[1],-1.47
same,glycan array binding signal (z-score),[2],0.401
same,glycan array binding signal (z-score),[3],1.67
same,glycan array binding signal (z-score),[4],0.985
same,glycan array binding signal (z-score),[5],-1.12
same,glycan array binding signal (z-score),[6],1.54
same,glycan array binding signal (z-score),[7],0.296
same,glycan array binding signal (z-score),[8],-1.1
same,glycan array binding signal (z-score),[9],-0.487
same,glycan array binding signal (z-score),[10],-1
same,glycan array binding signal (z-score),[11],-1.61
same,glycan array binding signal (z-score),[12],0.245
same,glycan array binding signal (z-score),[13],-0.426
same,glycan array binding signal (z-score),[14],-1.07
same,glycan array binding signal (z-score),[15],-0.078
same,glycan array binding signal (z-score),[16],-0.682
same,glycan array binding signal (z-score),[17],-1.96
same,glycan array binding signal (z-score),[18],-1.04
same,glycan array binding signal (z-score),[19],0.187
same,glycan array binding signal (z-score),[20],0.033
same,glycan array binding signal (z-score),GlcNAc(b1-3)GalNAc,-0.8
same,glycan array binding signal (z-score),GlcNAc(b1-3)Man,0.008
same,glycan array binding signal (z-score),[21],-0.786
same,glycan array binding signal (z-score),[22],0.482
same,glycan array binding signal (z-score),[23],-1.17
same,glycan array binding signal (z-score),[24],1.55
same,glycan array binding signal (z-score),GlcNAc(b1-4)GlcNAc,-0.056
same,glycan array binding signal (z-score),[25],0.294
same,glycan array binding signal (z-score),[26],0.22
same,glycan array binding signal (z-score),[27],-0.245
same,glycan array binding signal (z-score),[28],-2.07
same,glycan array binding signal (z-score),[29],0.429
same,glycan array binding signal (z-score),GlcNAc(b1-6)GalNAc,-0.697
same,glycan array binding signal (z-score),[30],1.26
same,glycan array binding signal (z-score),Kdn(a2-3)Gal(b1-3)GalNAc,0.229
same,glycan array binding signal (z-score),Kdn(a2-3)Gal(b1-3)GlcNAc,-1.48
same,glycan array binding signal (z-score),Kdn(a2-3)Gal(b1-4)Glc,-0.521
same,glycan array binding signal (z-score),Kdn(a2-3)Gal(b1-4)GlcNAc,-0.898
same,glycan array binding signal (z-score),[31],0.5
same,glycan array binding signal (z-score),Kdn(a2-6)Gal(b1-4)GlcNAc,0.671
same,glycan array binding signal (z-score),[32],-0.183
same,glycan array binding signal (z-score),[33],0.733
same,glycan array binding signal (z-score),Man(a1-2)Man(a1-3)Man,-0.659
same,glycan array binding signal (z-score),[34],-0.808
